A short description of the test: qHTS Assay for Lipid Storage Modulators in Drosophila S3 Cells.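 As to cell number change: cells counted by Cell Tracker Red CMTPX staining in the red channel.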 To be noted: BODIPY lipid droplet fluorescence, 18-24 h; for cell number change: measured here: cell count max response, cells fed with added oleic acid. In a few lines: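 Drosophila S3 cells got compounds at several concentrations plus oleic acid (400 uM solution). Laser-scanning cytometry with 488 nm excitation read lipid droplets at 500-530 nm and cells at 575-640 nm. Percent activity was relative to 20 uM Triacsin C.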
In general terms: qHTS replaces the single test concentration by a dilution series.

[1] abbreviates: measured here: cell number channel AC50, cells fed with added oleic acid.
Setting [2] is: measured here: lipid fluorescence (Fed channel) AC50, cells fed with added oleic acid.

Some of the results follow. Shown are side measurements of this screen, not its main read-out; they come without a call. Compounds called inactive in the main read-out are mostly missing here. Potencies come from curve fits of mixed quality, noted in brackets.

For `CC(C)C(OC(=O)/C=C/c1ccc2c(c1)OCO2)C(=O)NC(N)=O` (stereo unspecified), the cell number change came out at 90.7%. The AC50 under setting [1] is 29.1 µM [rising, partial curve]. The concentration at half-maximal activity (AC50) under setting [2] is 0.13 µM [rising, single point].
With `O=C(CN1CCC(NC(=O)C2CC2)CC1)Nc1ccccc1[N+](=O)[O-]`, the cell number change came to 21.1%. The AC50 under setting [2] is 0.562 µM [rising, full curve, poor fit].
As for `CCC(=O)c1ccc(OCC(=O)N2CCc3cc(OC)c(OC)cc3C2)cc1`, the AC50 under setting [2] is 6.51 µM [rising, single point].
As to `COc1ccc(/C=C(/NC(=O)c2ccc(OC)c(OC)c2)C(=O)NCCc2c[nH]c3ccccc23)cc1`, the cell number change worked out at 8.28%.
Take `CNc1c([N+](=O)[O-])cnn1-c1ccc(C)cc1`: the cell number change was -23.6%. Besides, the AC50 under setting [2] was 14.6 µM [falling, partial curve, poor fit].
With `Nc1nc(SCCO)[nH]c(=O)c1NC(=O)c1ccccc1F`, the cell number change worked out at 23.2%. Further, the AC50 under setting [1] was 0.00461 µM [rising, full curve, poor fit]. In addition, the AC50 under setting [2] was 0.0058 µM [rising, full curve, poor fit].
For `CCN(C(=O)c1c(-c2ccccc2Cl)noc1C)C1CCCCC1`, the cell number change was -23%. The AC50 under setting [1] was 0.231 µM [falling, full curve, poor fit].
Turning to `Cc1ccc(NC(=O)NC(=O)N(C(C)C)S(C)(=O)=O)nc1`, the cell number change was -31%. Besides, the AC50 under setting [1] is 0.146 µM [falling, full curve, poor fit]. Besides, the AC50 under setting [2] was 5.8 µM [falling, full curve].
On to `O=C(Nc1ncnc2sc3c(c12)CCCCC3)c1ccc(F)cc1`, for which the cell number change is -34.8%. In addition, under setting [1], the AC50 was 16.4 µM [falling, single point]. In addition, the AC50 under setting [2] was 0.116 µM [rising, full curve, poor fit].
For `O=C(CS(=O)(=O)Cc1ccccc1)N1CCc2ccccc2C1`, the cell number change is -8.27%. Further, the AC50 under setting [2] is 20.6 µM [rising, single point].
With `COCc1cc(C)nc(N2CCNCC2)c1C#N`, the cell number change was -73.8%. For the same compound, under setting [1], the AC50 is 5.8 µM [falling, partial curve, poor fit]. In addition, the AC50 under setting [2] is 6.51 µM [falling, single point].
Consider `Cc1ncc(CN2CCCC(C(=O)Nc3ccc(-c4cccc(F)c4)cc3)C2)s1` (stereo unspecified), for which the cell number change is -20.4%.
Turning to `CC(C)CC(OC(=O)c1cccs1)C(=O)NCc1cccs1` (stereo unspecified), the cell number change worked out at 9.48%. Moreover, under setting [2], the AC50 is 16.4 µM [rising, partial curve, poor fit].
`CCCS(=O)(=O)c1nc(S(=O)(=O)c2ccc(C)cc2)c(NCCCN2CCOCC2)s1`: the cell number change was 18.6%. Further, the AC50 under setting [2] is 25.9 µM [rising, single point].
Take `Cc1cc(=O)oc2cc(NC(=O)c3cccc(S(=O)(=O)N(C)C)c3)ccc12`: the cell number change was -31.6%.
In the case of `Cc1nc2n[nH]c(N)c2c2c1COC(C)(C)C2`, the cell number change is -7.32%. Moreover, the AC50 under setting [2] was 3.26 µM [rising, single point].
As to `Fc1ccc(-c2csc(=S)[nH]2)cc1`, the cell number change came to 37.3%. Moreover, under setting [1], the AC50 is 0.794 µM [rising, full curve, poor fit]. Also, under setting [2], the AC50 was 0.112 µM [rising, full curve].
`Cc1ccccc1C(=O)Nc1ccccc1-c1nnn(CC(=O)Nc2ccc3c(c2)OCCO3)n1`: the cell number change worked out at 16.3%.
The same measure, in the same setting: the result for `O=C(O)CCNS(=O)(=O)c1cccc(Br)c1` reads -8.8%.
Turning to `O=C(Nc1ccccc1N1CCCC1)c1ccc2ccccc2c1`, the cell number change was 19.6%. The AC50 under setting [1] was 0.00731 µM [rising, full curve, poor fit].
`O=Cc1cc(Br)c(OC(=O)N2CCOCC2)c(Br)c1`: the cell number change is -33.3%.
With `COC(=O)CC1COc2ccccc2N1C(=O)c1cc(OC)c(OC)c(OC)c1` (stereo unspecified), the cell number change came out at 10.7%. The AC50 under setting [2] is 0.0651 µM [rising, full curve, poor fit].
As for `Cc1nn(-c2ccccc2)c(C)c1/C=N/NC(=O)c1cc(-c2ccc(Cl)s2)[nH]n1`, the cell number change was -33.9%. For the same compound, the AC50 under setting [1] is 7.31 µM [falling, partial curve, poor fit].
Turning to `CCCCNC(=O)Nc1cc(C(=O)OC)ccc1C`, the cell number change worked out at 25.4%. Under setting [2], the AC50 is 0.00517 µM [rising, full curve, poor fit].
As to `O=C(N/N=C1/CCSC1)c1cc(Br)ccc1O`, under setting [2], the AC50 was 0.00517 µM [falling, full curve, poor fit].
In the case of `O=C(NCCO)C1(c2ccc(Cl)cc2)CCCC1`, the AC50 under setting [2] is 6.51 µM [falling, single point].
Regarding `CN(C)CCn1c(=O)n(-c2cccc(Cl)c2)c(=O)c2c3c(sc21)CCCCC3`, the cell number change is -19.6%. Besides, the AC50 under setting [2] was 32.6 µM [falling, single point].
With `COc1cc(/C=C2/N=C(C3CCCCC3)OC2=O)cc(OC)c1OC`, the cell number change turned out to be 1.08%. Moreover, under setting [2], the AC50 was 2.31 µM [falling, partial curve].
Turning to `Nc1ccc(N2CCCCC2)cc1N1CCCCC1`, the cell number change was -47.8%. In addition, the AC50 under setting [1] was 29.1 µM [falling, single point]. In addition, the AC50 under setting [2] was 29.1 µM [falling, single point].
With `Oc1ccc(/C=N/Nc2cccc(Cl)n2)c(O)c1`, the cell number change is -1.72%. Under setting [2], the AC50 was 20.6 µM [falling, single point].
As to `O=S(=O)(c1ccc(F)cc1)N1CCN(c2ccc(F)cc2)CC1`, the cell number change is -32.8%. In addition, the AC50 under setting [2] is 32.6 µM [falling, single point].
On to `Cc1nc(C(=O)NNC(=O)c2ccc(Cl)cc2)c(C(F)(F)F)o1`, for which the cell number change amounted to 16.3%.
`NC(=S)N=Nc1c(O)n(CC(=O)Nc2ccccc2)c2ccccc12`: the cell number change stood at 131%. Moreover, the AC50 under setting [1] is 20.6 µM [rising, partial curve]. The AC50 under setting [2] was 32.6 µM [rising, single point].
As for `Cc1cc(C(=O)OCC(=O)NC(C)c2ccc(F)cc2)c(C)o1` (stereo unspecified), the cell number change is -5.19%. For the same compound, the half-maximal activity concentration (AC50) under setting [1] was 6.51 µM [rising, single point]. Further, under setting [2], the AC50 was 6.51 µM [rising, single point].
On to `OCCNC(=S)NCc1ccccc1`, for which the cell number change was -20.4%. In addition, under setting [2], the concentration at half-maximal activity (AC50) was 0.184 µM [falling, full curve].
`O=C(NCCCN1CCN(Cc2ccccc2)CC1)c1nnc(Cc2c(F)cccc2Cl)o1`: the cell number change was -1.52%. Under setting [1], the AC50 was 0.146 µM [falling, full curve, poor fit]. In addition, the AC50 under setting [2] was 18.4 µM [rising, partial curve].
Consider `CCO[C@@H]1OC(C(=O)Nc2ccccc2)=C[C@H](c2ccc3c(c2)OCO3)[C@H]1CCCO`, for which the cell number change was -7.94%. Further, under setting [2], the AC50 was 2.06 µM [rising, single point].
Turning to `O=C(NC1CCCCC1)c1ccc(CS(=O)Cc2ccccc2Cl)o1` (stereo unspecified), the cell number change came to 19.4%. In addition, under setting [2], the AC50 was 2.31 µM [rising, full curve].

A word on the AC50: it is the midpoint of the concentration-response curve, whichever way the signal moves.

The values are drawn from PubChem BioAssay AID2685 (National Center for Advancing Translational Sciences (NCATS), 2010).
